# Test results: PubChem BioAssay AID651768 (National Center for Advancing Translational Sciences (NCATS), 2012)
# Sequences of proteins named here, by UniProt entry; tags and fusion partners are left off.
# UniProt Q14191, whole entry, looked up: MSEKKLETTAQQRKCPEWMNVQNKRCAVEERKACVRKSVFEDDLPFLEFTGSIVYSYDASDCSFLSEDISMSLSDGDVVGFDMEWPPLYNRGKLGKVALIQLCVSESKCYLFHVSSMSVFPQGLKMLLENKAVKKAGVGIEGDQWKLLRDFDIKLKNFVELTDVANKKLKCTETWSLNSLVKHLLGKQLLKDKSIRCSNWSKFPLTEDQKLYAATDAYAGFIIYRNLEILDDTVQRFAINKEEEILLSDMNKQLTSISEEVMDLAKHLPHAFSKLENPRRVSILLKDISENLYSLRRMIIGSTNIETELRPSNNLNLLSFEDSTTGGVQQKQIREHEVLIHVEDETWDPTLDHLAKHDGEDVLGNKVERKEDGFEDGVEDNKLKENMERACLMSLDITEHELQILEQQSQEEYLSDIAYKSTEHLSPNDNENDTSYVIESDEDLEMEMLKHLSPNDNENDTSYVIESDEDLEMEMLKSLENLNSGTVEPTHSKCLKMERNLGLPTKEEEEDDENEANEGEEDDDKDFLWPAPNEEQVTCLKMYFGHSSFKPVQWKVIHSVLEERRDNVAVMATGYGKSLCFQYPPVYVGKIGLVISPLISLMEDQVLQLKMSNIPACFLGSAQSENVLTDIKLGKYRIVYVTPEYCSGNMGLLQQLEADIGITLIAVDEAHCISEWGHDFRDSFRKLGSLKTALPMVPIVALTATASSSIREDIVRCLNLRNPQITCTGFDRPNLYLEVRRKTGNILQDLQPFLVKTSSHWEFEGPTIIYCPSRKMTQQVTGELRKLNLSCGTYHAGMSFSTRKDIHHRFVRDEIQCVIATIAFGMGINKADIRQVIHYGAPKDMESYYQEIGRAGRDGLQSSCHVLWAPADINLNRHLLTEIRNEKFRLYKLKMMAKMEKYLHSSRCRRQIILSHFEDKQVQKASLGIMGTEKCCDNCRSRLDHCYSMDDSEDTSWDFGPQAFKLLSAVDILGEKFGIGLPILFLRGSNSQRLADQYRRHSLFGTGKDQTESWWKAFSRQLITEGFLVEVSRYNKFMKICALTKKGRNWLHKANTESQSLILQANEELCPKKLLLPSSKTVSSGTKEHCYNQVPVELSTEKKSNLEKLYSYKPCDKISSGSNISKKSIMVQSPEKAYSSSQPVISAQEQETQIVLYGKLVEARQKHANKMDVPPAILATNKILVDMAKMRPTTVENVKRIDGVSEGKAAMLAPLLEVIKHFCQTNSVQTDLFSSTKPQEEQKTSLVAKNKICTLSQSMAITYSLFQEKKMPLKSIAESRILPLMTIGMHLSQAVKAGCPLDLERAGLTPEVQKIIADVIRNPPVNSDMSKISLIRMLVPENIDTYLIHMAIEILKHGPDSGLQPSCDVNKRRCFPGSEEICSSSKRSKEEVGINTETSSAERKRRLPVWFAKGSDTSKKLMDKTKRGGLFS
# Hit rate of the full screen: of about 360,000 compounds, about 1,700 (0.47%) were called active. The shares of active, inactive and inconclusive entries below differ from those in the screen. Calls follow the shape of the dose curve; as a rule, active = well fitted inhibition curve with a large enough effect; inconclusive = small, poorly fitted or top-dose-only effect; inactive = no such curve, though single readings can be large or run the other way. Where the call is inconclusive, the potency comes from a doubtful curve fit.
# Biological target: Bifunctional 3'-5' exonuclease/ATP-dependent helicase WRN (Homo sapiens) (UniProt Q14191)
# Experiment: qHTS for Inhibitors of WRN Helicase; also: nearly all actives have a fitted effect of over 55% in size
# Conditions: WRN helicase unwinding, fluorescent forked duplex, kinetic; activity change, negative = inhibition: at 114 µM (top of the series) unless noted
# In short: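 Kinetic red-fluorescence monitoring (525/598 nm) tracks WRN helicase activity after 100 nM fluorophore-quencher forked duplex and 2 mM ATP are added to 20 nM enzyme pretreated 15 min at room temperature with compound.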
# % is scaled to controls: 0 for no effect and ±100 for the full control effect; potency is read from the fitted curve at half-maximal effect.
Compound,Potency,"activity change, negative = inhibition"
Cc1c(Cl)cnc(NC(=O)COC(=O)c2ccncc2)c1Cl,"inconclusive: 14.1 µM [inhibitor, full curve, poor fit]",–
Cc1ccc(NC(=O)c2nc(S(=O)(=O)Cc3ccccc3C)ncc2Cl)cc1C,inactive,–
O=C(/C=C/c1ccc(OCCCF)cc1)NCc1cccc(Cl)c1,inactive,–
CCO/C(=C/c1sc2ccc(OC)cc2[n+]1CCCS(=O)(=O)[O-])CC,inactive,–
C=CCOc1c(OC)cc(/C=N/Nc2cccc(C(=O)O)c2)c(Br)c1Br,inactive,–
O=C1c2ccccc2CC1Sc1nnc(-c2ccccn2)o1 (stereo not drawn),"inconclusive: 31.6 µM [inhibitor, full curve]",–
Cc1c([N+](=O)[O-])cc(C(=O)Nc2ccc3ncccc3c2)cc1[N+](=O)[O-],"inconclusive: 89.1 µM [inhibitor, single point]",–
COc1ccc(-n2c(-c3ccc(Cl)cc3Cl)n[nH]c2=S)c(OC)c1,active: 79.4 µM,–
CC(=O)Nc1ccc(SCC(=O)N(C)CC(=O)Nc2ccccc2Cl)cc1,"inconclusive: 28.2 µM [inhibitor, full curve]",–
CC(C)(C)N1C(=O)Cc2c1nc(N)c1c(N)nc(N3CCCCC3CO)c(C#N)c21 (stereo not drawn),"inconclusive: 8.91 µM [inhibitor, partial curve, poor fit]",–
COc1ccc(CN2CC(=O)N(c3ccc(C)c(C)c3)C2=S)cc1OC,"inconclusive: 10 µM [inhibitor, full curve, poor fit]",–
Cc1ccc(/C=C/C(=O)Nc2ccc([N+](=O)[O-])c(NC(=O)/C=C/c3ccc(C)o3)c2)o1,"inconclusive: 50.1 µM [inhibitor, partial curve]",–
Oc1ccc(NCc2ccccc2OCc2ccccc2F)cc1,"inconclusive: 56.2 µM [inhibitor, partial curve]",–
CC(=O)Nc1ccccc1NC(=O)c1cc(C)cc(C)c1,"inconclusive: 89.1 µM [inhibitor, single point]",–
CC1=C([N+](=O)[O-])C(c2ccc(Cl)cc2)NC(=O)N1C (stereo not drawn),active: 70.8 µM,–
CC(=O)Nc1cc(C(=O)CSc2nnc(C3CC3)n2C2CC2)ccc1O,"inconclusive: 56.2 µM [inhibitor, partial curve]",–
Cc1cccc(NC(=O)CN2C(=O)C3CC=CCC3C2=O)c1C (stereo not drawn),inactive,–
Cc1nnc(N(C(=O)c2cnccn2)c2ccccc2)s1,inactive,–
O=C(Nc1cccc(Oc2ccc(C(=O)O)c(C(=O)O)c2)c1)c1ccc(-c2ccccc2)cc1,"inconclusive: 39.8 µM [inhibitor, partial curve]",–
Cc1csc(SCC(=O)Nc2cc(C(N)=O)cc(C(N)=O)c2)n1,"inconclusive: 14.1 µM [inhibitor, full curve]",–
CCCNC(=O)Cn1sc2nc(C)cc(C)c2c1=O,–,inactive: -15.2% [at 11.6 µM]
O=[N+]([O-])c1ccccc1NC(=S)N/N=C/c1ccc(O)c(O)c1,active: 10.6 µM,–
O=C1C=C(O)c2cccc(O)c2C1=O,inactive,–
Cc1nc2ccccc2n2c(O)c(CC(=O)O)cc12,–,inconclusive: -43.4% [inhibitor] [at 57.1 µM]
CCN(CC)CCN(C(=O)c1ccc(S(=O)(=O)N(C)C2CCCCC2)cc1)c1nc2c(C)cccc2s1,"inconclusive: 50.1 µM [inhibitor, partial curve]",–

# Part of the list above, tab-delimited.
Compound	Potency	activity change, negative = inhibition
C=CCOc1c(OC)cc(/C=N/Nc2cccc(C(=O)O)c2)c(Br)c1Br	inactive	–
O=C1c2ccccc2CC1Sc1nnc(-c2ccccn2)o1 (stereo not drawn)	inconclusive: 31.6 µM [inhibitor, full curve]	–
Cc1c([N+](=O)[O-])cc(C(=O)Nc2ccc3ncccc3c2)cc1[N+](=O)[O-]	inconclusive: 89.1 µM [inhibitor, single point]	–
COc1ccc(-n2c(-c3ccc(Cl)cc3Cl)n[nH]c2=S)c(OC)c1	active: 79.4 µM	–
CC(=O)Nc1ccc(SCC(=O)N(C)CC(=O)Nc2ccccc2Cl)cc1	inconclusive: 28.2 µM [inhibitor, full curve]	–
CC(C)(C)N1C(=O)Cc2c1nc(N)c1c(N)nc(N3CCCCC3CO)c(C#N)c21 (stereo not drawn)	inconclusive: 8.91 µM [inhibitor, partial curve, poor fit]	–
COc1ccc(CN2CC(=O)N(c3ccc(C)c(C)c3)C2=S)cc1OC	inconclusive: 10 µM [inhibitor, full curve, poor fit]	–
Cc1ccc(/C=C/C(=O)Nc2ccc([N+](=O)[O-])c(NC(=O)/C=C/c3ccc(C)o3)c2)o1	inconclusive: 50.1 µM [inhibitor, partial curve]	–
Oc1ccc(NCc2ccccc2OCc2ccccc2F)cc1	inconclusive: 56.2 µM [inhibitor, partial curve]	–
CC(=O)Nc1ccccc1NC(=O)c1cc(C)cc(C)c1	inconclusive: 89.1 µM [inhibitor, single point]	–
CC1=C([N+](=O)[O-])C(c2ccc(Cl)cc2)NC(=O)N1C (stereo not drawn)	active: 70.8 µM	–
CC(=O)Nc1cc(C(=O)CSc2nnc(C3CC3)n2C2CC2)ccc1O	inconclusive: 56.2 µM [inhibitor, partial curve]	–
Cc1cccc(NC(=O)CN2C(=O)C3CC=CCC3C2=O)c1C (stereo not drawn)	inactive	–
Cc1nnc(N(C(=O)c2cnccn2)c2ccccc2)s1	inactive	–

# Continuation.

Compound,Potency,"activity change, negative = inhibition"
Cc1ccc(C)c(/C(O)=C2/C(=O)C(=O)N(CCN3CCOCC3)C2c2ccco2)c1 (stereo not drawn),inactive,–
CCOCCCNc1nc2c(C)cccn2c(=O)c1/C=C1\SC(=S)N(C(C)CC)C1=O (stereo not drawn),"inconclusive: 4.23 µM [inhibitor, partial curve]",–
Cc1ccc(C#CC[N+](C)(C)CC#Cc2ccccc2)cc1,"inconclusive: 39.8 µM [inhibitor, single point]",–
COc1ccc(OC)c(NC(=O)COC(=O)CCc2nc3ccccc3c(=O)[nH]2)c1,"inconclusive: 35.5 µM [inhibitor, full curve]",–
Cc1ccc2oc(C(F)(F)C(F)F)cc(=O)c2c1,"inconclusive: 3.55 µM [inhibitor, full curve, poor fit]",–
O=C(CCCN1C(=O)/C(=C/c2ccccc2Cl)SC1=S)NCCCN1CCOCC1,active: 89.1 µM,–
COc1ccccc1NS(=O)(=O)c1cc(NC(=O)CNC(=O)c2ccc(C)s2)ccc1Cl,active: 56.2 µM,–
C/C(=N\NC(=O)c1cccc(N/N=C(\C)c2cc(O)ccc2O)c1)c1cc(O)ccc1O,"inconclusive: 20 µM [inhibitor, single point]",–
COc1ccc(C(=O)N/C(=C\c2ccc([N+](=O)[O-])cc2)C(=O)NC(CCSC)C(=O)O)cc1 (stereo not drawn),inactive,–
COC(=O)/C=C1\S/C(=N\N=C\CC(=O)OC)NC1=O,"inconclusive: 39.8 µM [inhibitor, partial curve]",–
Cc1noc(C)c1CSCC(=O)Nc1nc2c(F)cc(F)cc2s1,"inconclusive: 39.8 µM [inhibitor, partial curve]",–
CCCCc1nc2sc3c(c2c(=O)[nH]1)CC(C)(C)OC3,inactive,–
O=C1c2ccccc2C(=O)c2c([N+](=O)[O-])ccc(O)c21,"inconclusive: 70.8 µM [inhibitor, single point]",–
Cc1ccc(C(C2=C(O)CC(C)(C)CC2=O)C2C(=O)CC(C)(C)CC2=O)s1 (stereo not drawn),active: 56.2 µM,–
CC(=O)c1c(C)[nH]c(C(=O)COC(=O)c2ccc3c(=O)n4c(nc3c2)CCC4)c1C,inactive,–
Nc1cccc2cc(S(=O)(=O)O)ccc12,"inconclusive: 35.5 µM [inhibitor, partial curve]",–
Nn1c(SCC(=O)Nc2cccc(Br)c2)nnc1C1CC1,inactive,–
COC(=O)Nc1ccc(S(=O)(=O)N2CCCC(C(=O)Nc3cccnc3)C2)cc1 (stereo not drawn),inactive,–
CCN(CC(=O)Nc1ccc2c(c1)OCCO2)C(=O)/C=C/c1ccc(OC)cc1OC,"inconclusive: 89.1 µM [inhibitor, single point]",–
C#CCOCCOCCOCCNc1nc(N2CCN(C(=O)CCCCCCCCCCNC(=O)Cn3cc(CCCCCN)nn3)CC2)nc(N2CCN(C(=O)CCCCCCCCCCNC(=O)[C@H]([C@@H](C)CC)n3cc(CCCCN=C(N)N)nn3)CC2)n1,active: 31.6 µM,–
Cc1ccccc1COc1ccc(/C=C(\C#N)C(N)=O)cc1,inactive,–
COc1cc(OC)c(-n2cc(-c3ccc(OC)c(OC)c3)[nH]c2=S)cc1Cl,inactive,–
S=c1[nH]nc(Nc2cccc3ccccc23)s1,"inconclusive: 56.2 µM [inhibitor, partial curve]",–
CC(=O)c1ccc(Nc2ncnc3c2oc2ccccc23)cc1,"inconclusive: 89.1 µM [inhibitor, single point]",–
O=C(Nc1ccc(Cl)cc1)C1CCCCN1S(=O)(=O)c1ccccc1 (stereo not drawn),"inconclusive: 14.1 µM [inhibitor, single point]",–

Compound,Potency,"activity change, negative = inhibition"
O=C1C2C3C=CC(CC3)C2C(=O)N1/N=C/c1ccc(O)cc1 (stereo not drawn),inactive,–
CCCSc1nc(N)nc(-c2cccs2)c1C#N,"inconclusive: 79.4 µM [inhibitor, single point]",–
COc1ccc(-c2ccnc3c(C#N)cnn23)cc1,"inconclusive: 70.8 µM [inhibitor, single point]",–
CCn1c(C(=O)OC)cc2c1ccn2-c1ccc(F)cc1,"inconclusive: 89.1 µM [inhibitor, single point]",–
Cc1ccc(-n2c(SCC(=O)NCc3ccco3)nc3nc4c(cc3c2=O)COC(C)(C)C4)cc1,–,inactive: 0.828% [at 11.6 µM]
CCCC1=NN2C(=N)/C(=C\c3ccc(SCc4ccco4)o3)C(=O)N=C2S1,active: 39.8 µM,–
COc1ccc(S(=O)(=O)N(CC(=O)N2CCOCC2)Cc2ccccc2)cc1,inactive,–
O=C(CSc1nnc(-c2ccccc2O)n1Cc1ccccc1)NNC(=O)c1ccccc1O,"inconclusive: 79.4 µM [inhibitor, partial curve]",–
O=C(Nc1ccc(N2CCOCC2)cc1N1CCOCC1)c1ccco1,inactive,–
CCOc1ccccc1NC(=O)c1ccc2c(c1)C(=O)N(CC)C2=O,"inconclusive: 89.1 µM [inhibitor, single point]",–
CN(C)C=Nc1c(Br)cc(Br)c2nonc12,"inconclusive: 50.1 µM [inhibitor, partial curve]",–
O=S(=O)(Nc1ccc(Br)cn1)c1ccc2ccccc2c1,"inconclusive: 89.1 µM [inhibitor, single point]",–
N#C/C(=C\c1c(N2CCC(C(N)=O)CC2)nc2ccccn2c1=O)C(=O)NCc1ccco1,"inconclusive: 12.6 µM [inhibitor, partial curve]",–
O=S(=O)(NC1CC1)c1ccc(F)c(F)c1,inactive,–
CCOc1cc(CNc2ccc3cn[nH]c3c2)ccc1OC,inactive,–
O=C1C=C(c2c(O)ccc3ccccc23)c2ccccc2C1=O,active: 20 µM,–
CC(/C=C1\SC(=S)N(CCC(=O)Nc2cccc(C(=O)O)c2)C1=O)=C\c1ccccc1,active: 79.4 µM,–
O=C1C=C(Nc2cccc3cccnc23)c2ccccc2C1=O,inactive,–
CSc1ccccc1OCc1cc(C(=O)N(C)CC2COCCO2)no1 (stereo not drawn),"inconclusive: 89.1 µM [inhibitor, single point]",–
CC1(c2nnc(Cc3ccccc3)o2)CC(c2cccc([N+](=O)[O-])c2)=NO1 (stereo not drawn),inactive,–
O=C(CCCCCCCCC(=O)N/N=C/c1ccco1)N/N=C/c1ccco1,"inconclusive: 14.1 µM [inhibitor, full curve, poor fit]",–
CC(O)c1cccc(NC(=O)C2CCCCC2)c1 (stereo not drawn),inactive,–
Cc1cccc(-n2c(C)cc(/C=C3/C(=N)N4C(c5ccccc5)=CSC4=NC3=O)c2C)c1,inactive,–
